Measurements: PMC9098444
These are yes or no findings as the source states them, for the method shown. In cells and extracts the contact can be indirect. A result given as binding can be weak or reduced; the word gives no strength.

The chains behind the UniProt entries cited, without tags or fusion partners. Where a name states a change or a piece, a line headed by the entry shows the natural chain unless it says otherwise.
UniProt Q8BLN6: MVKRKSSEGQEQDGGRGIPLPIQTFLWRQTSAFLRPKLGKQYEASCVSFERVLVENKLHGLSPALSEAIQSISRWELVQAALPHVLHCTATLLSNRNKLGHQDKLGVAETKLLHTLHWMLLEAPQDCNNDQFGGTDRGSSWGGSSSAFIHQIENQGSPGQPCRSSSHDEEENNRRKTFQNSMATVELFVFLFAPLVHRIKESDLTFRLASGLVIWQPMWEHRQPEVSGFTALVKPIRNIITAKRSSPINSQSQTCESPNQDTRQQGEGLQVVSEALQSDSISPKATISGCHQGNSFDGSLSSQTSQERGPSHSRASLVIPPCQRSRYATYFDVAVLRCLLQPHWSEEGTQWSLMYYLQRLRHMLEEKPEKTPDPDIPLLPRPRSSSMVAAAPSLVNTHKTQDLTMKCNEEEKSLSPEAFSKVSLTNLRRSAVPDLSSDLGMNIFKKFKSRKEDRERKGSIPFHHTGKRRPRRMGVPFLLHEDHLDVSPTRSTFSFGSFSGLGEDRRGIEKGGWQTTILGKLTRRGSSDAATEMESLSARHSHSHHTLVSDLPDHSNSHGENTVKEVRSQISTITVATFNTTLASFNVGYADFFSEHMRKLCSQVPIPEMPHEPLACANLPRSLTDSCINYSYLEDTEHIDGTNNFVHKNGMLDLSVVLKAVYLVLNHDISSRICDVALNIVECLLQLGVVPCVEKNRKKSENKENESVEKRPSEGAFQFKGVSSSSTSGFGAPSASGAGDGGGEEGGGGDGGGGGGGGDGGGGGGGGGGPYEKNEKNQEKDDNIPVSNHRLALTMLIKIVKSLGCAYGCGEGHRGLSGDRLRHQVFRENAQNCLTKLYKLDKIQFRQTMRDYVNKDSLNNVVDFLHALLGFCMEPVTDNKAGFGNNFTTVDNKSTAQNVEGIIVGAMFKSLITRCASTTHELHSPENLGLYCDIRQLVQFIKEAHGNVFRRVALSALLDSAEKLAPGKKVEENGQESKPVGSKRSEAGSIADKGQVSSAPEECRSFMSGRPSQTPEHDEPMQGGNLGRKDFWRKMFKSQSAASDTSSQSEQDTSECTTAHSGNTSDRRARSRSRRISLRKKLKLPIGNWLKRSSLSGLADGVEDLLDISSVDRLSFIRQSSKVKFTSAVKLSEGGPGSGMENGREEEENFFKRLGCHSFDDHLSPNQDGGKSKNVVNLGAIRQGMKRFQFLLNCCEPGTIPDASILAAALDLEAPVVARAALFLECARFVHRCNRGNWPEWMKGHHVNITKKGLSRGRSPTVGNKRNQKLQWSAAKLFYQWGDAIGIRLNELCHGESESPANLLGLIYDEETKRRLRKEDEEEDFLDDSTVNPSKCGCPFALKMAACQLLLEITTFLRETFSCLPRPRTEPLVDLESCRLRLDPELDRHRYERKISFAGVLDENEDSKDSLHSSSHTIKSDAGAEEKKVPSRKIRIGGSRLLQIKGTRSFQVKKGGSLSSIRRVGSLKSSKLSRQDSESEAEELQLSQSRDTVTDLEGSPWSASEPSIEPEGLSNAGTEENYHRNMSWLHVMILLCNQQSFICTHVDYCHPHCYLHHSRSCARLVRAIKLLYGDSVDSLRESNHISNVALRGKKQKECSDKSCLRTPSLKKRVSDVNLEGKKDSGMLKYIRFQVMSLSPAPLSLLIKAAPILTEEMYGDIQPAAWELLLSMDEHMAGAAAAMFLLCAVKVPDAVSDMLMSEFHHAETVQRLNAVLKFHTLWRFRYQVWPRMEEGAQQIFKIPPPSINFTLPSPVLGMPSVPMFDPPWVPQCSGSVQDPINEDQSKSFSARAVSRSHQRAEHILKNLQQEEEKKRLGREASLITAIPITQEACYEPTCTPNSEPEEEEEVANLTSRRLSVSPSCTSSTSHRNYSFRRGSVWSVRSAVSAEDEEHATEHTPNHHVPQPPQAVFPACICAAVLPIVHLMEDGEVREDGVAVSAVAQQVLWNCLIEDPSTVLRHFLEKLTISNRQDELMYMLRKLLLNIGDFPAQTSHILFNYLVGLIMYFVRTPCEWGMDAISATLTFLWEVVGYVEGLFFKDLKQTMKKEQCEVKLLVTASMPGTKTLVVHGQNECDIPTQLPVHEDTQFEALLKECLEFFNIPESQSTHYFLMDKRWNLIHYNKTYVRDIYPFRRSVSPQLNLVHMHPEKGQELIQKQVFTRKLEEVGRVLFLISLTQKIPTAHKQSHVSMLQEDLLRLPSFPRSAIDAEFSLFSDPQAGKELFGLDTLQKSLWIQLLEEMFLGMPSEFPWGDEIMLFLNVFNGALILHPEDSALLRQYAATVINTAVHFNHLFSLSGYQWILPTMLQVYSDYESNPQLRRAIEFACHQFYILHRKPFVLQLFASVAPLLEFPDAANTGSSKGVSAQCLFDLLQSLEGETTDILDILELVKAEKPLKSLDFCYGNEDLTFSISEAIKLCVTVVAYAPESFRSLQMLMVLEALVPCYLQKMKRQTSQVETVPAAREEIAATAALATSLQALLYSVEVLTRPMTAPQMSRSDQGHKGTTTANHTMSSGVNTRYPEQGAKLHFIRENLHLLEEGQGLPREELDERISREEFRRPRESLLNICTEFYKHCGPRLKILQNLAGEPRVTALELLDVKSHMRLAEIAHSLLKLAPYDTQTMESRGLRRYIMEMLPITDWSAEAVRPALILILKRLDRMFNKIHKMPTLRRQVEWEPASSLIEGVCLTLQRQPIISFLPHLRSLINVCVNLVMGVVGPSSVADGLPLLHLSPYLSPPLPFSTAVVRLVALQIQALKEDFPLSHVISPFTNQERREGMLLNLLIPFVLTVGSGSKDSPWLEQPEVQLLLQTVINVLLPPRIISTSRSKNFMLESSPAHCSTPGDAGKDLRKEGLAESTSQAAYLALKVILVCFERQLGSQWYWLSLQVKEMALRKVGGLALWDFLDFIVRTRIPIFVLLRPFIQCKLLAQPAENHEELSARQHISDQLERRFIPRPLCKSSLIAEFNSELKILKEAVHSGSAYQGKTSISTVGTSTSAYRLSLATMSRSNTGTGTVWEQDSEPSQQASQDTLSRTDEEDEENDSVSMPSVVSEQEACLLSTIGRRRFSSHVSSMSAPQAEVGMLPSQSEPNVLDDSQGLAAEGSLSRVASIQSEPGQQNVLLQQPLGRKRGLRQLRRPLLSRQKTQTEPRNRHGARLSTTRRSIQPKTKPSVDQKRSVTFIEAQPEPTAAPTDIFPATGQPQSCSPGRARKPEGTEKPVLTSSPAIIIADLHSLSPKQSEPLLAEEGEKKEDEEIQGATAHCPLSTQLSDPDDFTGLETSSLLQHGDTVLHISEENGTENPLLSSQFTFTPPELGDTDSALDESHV
UniProt Q0KK59: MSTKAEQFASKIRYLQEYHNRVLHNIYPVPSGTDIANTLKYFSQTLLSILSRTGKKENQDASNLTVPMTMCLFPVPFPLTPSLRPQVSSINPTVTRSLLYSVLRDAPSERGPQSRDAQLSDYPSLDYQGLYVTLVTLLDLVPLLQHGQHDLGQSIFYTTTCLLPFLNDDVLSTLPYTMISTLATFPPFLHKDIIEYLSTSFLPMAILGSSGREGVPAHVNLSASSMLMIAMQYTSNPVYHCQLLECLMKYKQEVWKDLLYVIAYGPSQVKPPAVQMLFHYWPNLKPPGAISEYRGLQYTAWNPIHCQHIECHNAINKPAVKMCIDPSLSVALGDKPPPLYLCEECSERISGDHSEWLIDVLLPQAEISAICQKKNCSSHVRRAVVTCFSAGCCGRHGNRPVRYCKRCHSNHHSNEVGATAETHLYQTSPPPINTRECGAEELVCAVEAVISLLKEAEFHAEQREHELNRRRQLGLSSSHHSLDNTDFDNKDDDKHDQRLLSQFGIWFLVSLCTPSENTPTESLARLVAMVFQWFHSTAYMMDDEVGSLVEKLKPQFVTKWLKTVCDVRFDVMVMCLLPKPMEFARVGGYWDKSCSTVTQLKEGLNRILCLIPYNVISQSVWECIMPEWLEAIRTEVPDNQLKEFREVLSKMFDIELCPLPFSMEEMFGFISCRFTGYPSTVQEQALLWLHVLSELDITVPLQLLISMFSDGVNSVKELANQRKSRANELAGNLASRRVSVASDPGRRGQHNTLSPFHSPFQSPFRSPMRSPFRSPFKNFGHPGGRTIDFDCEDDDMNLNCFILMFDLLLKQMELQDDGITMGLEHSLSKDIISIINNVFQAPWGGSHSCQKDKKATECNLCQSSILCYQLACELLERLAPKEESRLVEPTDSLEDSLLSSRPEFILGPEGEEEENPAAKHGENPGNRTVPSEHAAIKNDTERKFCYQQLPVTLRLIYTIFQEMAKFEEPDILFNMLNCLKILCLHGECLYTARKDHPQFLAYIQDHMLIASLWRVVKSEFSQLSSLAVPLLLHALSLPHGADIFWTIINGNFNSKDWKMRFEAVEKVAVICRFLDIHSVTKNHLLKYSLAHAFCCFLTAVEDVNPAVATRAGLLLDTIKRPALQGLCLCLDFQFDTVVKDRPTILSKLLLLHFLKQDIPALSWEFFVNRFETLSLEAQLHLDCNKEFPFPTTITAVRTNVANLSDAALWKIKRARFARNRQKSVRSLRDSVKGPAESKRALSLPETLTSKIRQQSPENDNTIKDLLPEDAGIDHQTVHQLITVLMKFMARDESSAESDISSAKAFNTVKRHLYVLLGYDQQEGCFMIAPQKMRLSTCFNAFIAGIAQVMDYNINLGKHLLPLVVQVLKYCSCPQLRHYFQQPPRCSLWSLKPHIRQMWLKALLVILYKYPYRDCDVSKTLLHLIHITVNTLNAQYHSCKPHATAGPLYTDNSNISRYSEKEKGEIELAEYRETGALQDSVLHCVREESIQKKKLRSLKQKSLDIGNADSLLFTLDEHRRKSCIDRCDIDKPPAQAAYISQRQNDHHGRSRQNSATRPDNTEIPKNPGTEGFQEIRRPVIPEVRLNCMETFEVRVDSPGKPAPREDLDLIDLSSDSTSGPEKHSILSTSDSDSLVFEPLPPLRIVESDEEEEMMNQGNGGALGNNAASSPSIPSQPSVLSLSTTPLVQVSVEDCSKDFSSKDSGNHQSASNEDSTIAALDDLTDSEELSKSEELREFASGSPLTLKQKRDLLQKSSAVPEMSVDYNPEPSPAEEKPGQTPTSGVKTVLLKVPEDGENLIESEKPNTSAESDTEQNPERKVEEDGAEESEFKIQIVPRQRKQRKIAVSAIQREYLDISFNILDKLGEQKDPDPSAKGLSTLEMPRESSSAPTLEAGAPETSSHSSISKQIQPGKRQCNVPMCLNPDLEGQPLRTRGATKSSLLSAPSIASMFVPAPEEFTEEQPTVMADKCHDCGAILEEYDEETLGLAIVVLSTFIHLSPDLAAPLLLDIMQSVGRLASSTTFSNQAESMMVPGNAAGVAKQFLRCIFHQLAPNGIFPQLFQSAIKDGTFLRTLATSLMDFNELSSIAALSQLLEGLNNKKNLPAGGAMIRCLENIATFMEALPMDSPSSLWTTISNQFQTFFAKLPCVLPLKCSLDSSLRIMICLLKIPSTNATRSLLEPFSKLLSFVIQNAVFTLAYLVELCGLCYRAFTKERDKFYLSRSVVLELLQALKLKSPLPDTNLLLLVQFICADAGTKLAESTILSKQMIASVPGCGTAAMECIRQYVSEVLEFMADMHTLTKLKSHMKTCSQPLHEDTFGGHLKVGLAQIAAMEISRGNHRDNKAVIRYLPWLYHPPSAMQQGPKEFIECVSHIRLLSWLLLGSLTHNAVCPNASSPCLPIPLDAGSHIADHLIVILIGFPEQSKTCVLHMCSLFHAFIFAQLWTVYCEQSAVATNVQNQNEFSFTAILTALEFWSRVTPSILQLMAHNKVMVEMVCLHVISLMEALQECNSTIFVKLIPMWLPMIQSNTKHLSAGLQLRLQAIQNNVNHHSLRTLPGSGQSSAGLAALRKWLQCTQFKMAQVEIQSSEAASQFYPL

Molecular target: GFP-strep tagged mouse UNC80 (mouse) (UniProt Q8BLN6)
Experiment: co-purification on Streptactin affinity beads; HA-UNC79 and GFP-strep UNC80 co-expressed in FreeStyle 293F cells by BacMam viruses and purified together by the strep tag of UNC80

binding: binds
Substance: mouse UNC79 with an N-terminal HA tag (from UniProt Q0KK59)
